{"sequences": {"note": "The chains behind the UniProt entries cited, without tags or fusion partners.", "UniProt Q0JBA9, entry or part of it": "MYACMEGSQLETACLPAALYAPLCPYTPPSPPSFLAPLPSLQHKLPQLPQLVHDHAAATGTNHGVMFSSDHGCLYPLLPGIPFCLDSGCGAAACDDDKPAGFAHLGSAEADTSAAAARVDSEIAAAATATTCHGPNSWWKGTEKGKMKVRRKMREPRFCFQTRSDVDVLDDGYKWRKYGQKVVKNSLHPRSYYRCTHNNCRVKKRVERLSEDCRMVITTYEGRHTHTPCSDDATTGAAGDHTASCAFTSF"}, "source": "paper PMC7819943", "about": "“Rice protein-binding microarrays: a tool to detect cis-acting elements near promoter regions in rice”", "note": "Some of the results follow."}
{"target": "OsWRKY34 (Oryza sativa, UniProt Q0JBA9 1-250)", "assay": "protein-binding microarray (RPBM); PBS, 2% BSA, 51.3 ng/ul salmon testes DNA, 50 uM zinc acetate, 200 nM TF, 25 C, 1 h; high values mean tight binding", "details": "protein: recombinant; tags: N-terminal polyhistidine and DsRed monomer fusion (pET32a); label: CyDye5-dUTP incorporated in the synthesized complementary strand; 3' TTTTT single-stranded linker to array surface; dsDNA, one strand shown", "in_short": "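Binding signal is defined as the fluorescence intensity of each feature in arbitrary units, read on an Axon 4000B scanner. Transcription factors with N-terminal polyhistidine and DsRed fusions came from E. coli BL21-CodonPlus and were purified on Ni–NTA. They were incubated at 200 nM for 1 h at 25 °C on a custom Agilent array that had been made double-stranded with Cy5-dUTP, with 50 µM zinc acetate present, and the array was washed.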"}
{"sequence": "GCCCGCACGTCTTCCGCGGCCACGCCACCGCCGATCCCCACGGAGTCACCTAGTGCAG", "binding signal": "9520 fluorescence intensity (a.u.)"}
{"sequence": "GTAGAATAGTGTGGGTTTCTGTATCTAACGTTTGACTGTCCGGAGTCACCTAGTGCAG", "binding signal": "8790 fluorescence intensity (a.u.)"}
{"sequence": "AGTTCGGAAGCCCTCGCCGCTATCGCCGCGCGCTCAGCGCCGGAGTCACCTAGTGCAG", "binding signal": "8220 fluorescence intensity (a.u.)"}
{"sequence": "ATACATCTTTGACCTTATTTTTCTATTATAATATATATAACGGAGTCACCTAGTGCAG", "binding signal": "9550 fluorescence intensity (a.u.)"}
{"sequence": "CGCAATCCACTTTCTCTCGCCAAGTCGTCGTCCATCCGATCGGAGTCACCTAGTGCAG", "binding signal": "9020 fluorescence intensity (a.u.)"}
{"sequence": "ACTCTTGAACCCACTTAGAAACCATATGGCTAAATATAACCGGAGTCACCTAGTGCAG", "binding signal": "8110 fluorescence intensity (a.u.)"}
{"sequence": "ATTTGCGCACCCTCTCGTGCCACTACCGTCAGTTGACCGTCGGAGTCACCTAGTGCAG", "binding signal": "9460 fluorescence intensity (a.u.)"}
{"sequence": "CATCCACGGCCGCCTCGCGTTCGTCGACCGCCTCGCCGTCCGGAGTCACCTAGTGCAG", "binding signal": "9630 fluorescence intensity (a.u.)"}
{"sequence": "CTAATCTTGATTATTTCCATGTACTGTAGTATTGTACTGACGGAGTCACCTAGTGCAG", "binding signal": "8490 fluorescence intensity (a.u.)"}
{"sequence": "CGATCACCTGCACACACATGAACCAAACAACCGTTGTCTTCGGAGTCACCTAGTGCAG", "binding signal": "9470 fluorescence intensity (a.u.)"}
{"sequence": "TTATTTTCCCGGGAACCCACATGTCATCGTAGGAGCTTACCGGAGTCACCTAGTGCAG", "binding signal": "9600 fluorescence intensity (a.u.)"}
{"sequence": "ATATCGATCTCTCTTAATTAATTTCCCATCCAATCCAGTGCGGAGTCACCTAGTGCAG", "binding signal": "8240 fluorescence intensity (a.u.)"}
{"sequence": "CTGCTGTTTTTCTTTCATCTTCTTTGTGTTCTAGTGTTAGCGGAGTCACCTAGTGCAG", "binding signal": "11500 fluorescence intensity (a.u.)"}
{"sequence": "ACTCTTCCCGACGCCCATCTCGCGAACCCGAAATCGCCCACGGAGTCACCTAGTGCAG", "binding signal": "8650 fluorescence intensity (a.u.)"}
{"sequence": "GTCGTCGTCGCGTTTCCTTCTCCTTCCGGCTTCCTCGGTTCGGAGTCACCTAGTGCAG", "binding signal": "10700 fluorescence intensity (a.u.)"}
{"sequence": "TGTCCATACTCCATCGTCCTTGCTTGGCCGTTTGCCGGTGCGGAGTCACCTAGTGCAG", "binding signal": "8780 fluorescence intensity (a.u.)"}
{"sequence": "GCGCCCACGAATATTACGCATATGCAAGTGGACTTTCAACCGGAGTCACCTAGTGCAG", "binding signal": "8500 fluorescence intensity (a.u.)"}
{"sequence": "CACTCTGCCGTCGTCGCATCCGTCGTCTCGCCGCCACCGACGGAGTCACCTAGTGCAG", "binding signal": "8190 fluorescence intensity (a.u.)"}
{"sequence": "ATATGGCAGCTACCTCACACCACTCTTCTCATCTTCCTCGCGGAGTCACCTAGTGCAG", "binding signal": "12800 fluorescence intensity (a.u.)"}
{"sequence": "TTGGGGAGGATTTTTTCTTTTCATTTCATAATTAATTTCCCGGAGTCACCTAGTGCAG", "binding signal": "11400 fluorescence intensity (a.u.)"}
{"sequence": "AACGCACTGCTCGCCATTGGCTCCATCCTTGACTCTGGCTCGGAGTCACCTAGTGCAG", "binding signal": "8040 fluorescence intensity (a.u.)"}
{"sequence": "TCCACTCGTCCACACATAACGCGGTTTCCTAGTTGACTGACGGAGTCACCTAGTGCAG", "binding signal": "9040 fluorescence intensity (a.u.)"}
{"sequence": "ATTCCACTTGCTTATGAAACCACTACAGTATTTGCAAATTCGGAGTCACCTAGTGCAG", "binding signal": "8910 fluorescence intensity (a.u.)"}
{"sequence": "GAGTTCATCTCCACCCTCGTCTTCGTCTTCGCCGGCGTCGCGGAGTCACCTAGTGCAG", "binding signal": "8192 fluorescence intensity (a.u.)"}
{"sequence": "TAGGTGTATCAGTTGTGTGCCATTCTCGTCTCTTCTCCGCCGGAGTCACCTAGTGCAG", "binding signal": "13100 fluorescence intensity (a.u.)"}
{"sequence": "CCCTCCTCTCGCCTGGCCGCCGCGCACCGTCTCCCTCCTCCGGAGTCACCTAGTGCAG", "binding signal": "8350 fluorescence intensity (a.u.)"}
{"sequence": "GTAATGGTTTTATTTTTTCATACATCTTTCTCTTTTCTTCCGGAGTCACCTAGTGCAG", "binding signal": "10700 fluorescence intensity (a.u.)"}
{"sequence": "TTCTTCCCAGATCGTGCTTCTCCCACTCGGATCAGCCGCCCGGAGTCACCTAGTGCAG", "binding signal": "8110 fluorescence intensity (a.u.)"}
{"sequence": "TGTATAGCTACATATTCACGCCACACCGCATCGTCATCTACGGAGTCACCTAGTGCAG", "binding signal": "8910 fluorescence intensity (a.u.)"}
{"sequence": "GGTGCTTGGATTGGGTGAAGGGGCATCATCTGCTCACTCCCGGAGTCACCTAGTGCAG", "binding signal": "8370 fluorescence intensity (a.u.)"}
{"sequence": "CTTCCTCGTCAGTTTGCCCTTTAGCCCACCCGCACCGCCGCGGAGTCACCTAGTGCAG", "binding signal": "8290 fluorescence intensity (a.u.)"}
{"sequence": "ACTCACATATCTCGTTTTCCACGCGCACTACTTTCCTAACCGGAGTCACCTAGTGCAG", "binding signal": "9090 fluorescence intensity (a.u.)"}
{"sequence": "GCCCTTGAATTTCTTTCACTTCCAATTTTAAGCTGATGTTCGGAGTCACCTAGTGCAG", "binding signal": "8880 fluorescence intensity (a.u.)"}
{"sequence": "ACTCTCTCTCCTTCAACACTGAGCTGAGCTCCACACTCCGCGGAGTCACCTAGTGCAG", "binding signal": "9240 fluorescence intensity (a.u.)"}
{"sequence": "GGTAGATTATATTAGGTTTTTCTTCGTGTTGTATTCACGACGGAGTCACCTAGTGCAG", "binding signal": "8720 fluorescence intensity (a.u.)"}
{"sequence": "GGCAGATGTGGACGGAGGGAGGGAGGGAGGGAGAGGGGCACGGAGTCACCTAGTGCAG", "binding signal": "17100 fluorescence intensity (a.u.)"}
{"sequence": "GGTTATCCTACTTCTATAAATTTCACACAATCGCTAGAATCGGAGTCACCTAGTGCAG", "binding signal": "8300 fluorescence intensity (a.u.)"}
{"sequence": "TATGTGTGTCTCGCTGGCTTGGTGATTAGTTAGTCCTTTTCGGAGTCACCTAGTGCAG", "binding signal": "9950 fluorescence intensity (a.u.)"}
{"sequence": "AGGGAGGAGGGTGGGTGGTGCCAACACGTCAGGCTGAATTCGGAGTCACCTAGTGCAG", "binding signal": "12200 fluorescence intensity (a.u.)"}
{"sequence": "ATGTTTTTTTTTGGGTCGCTTTCTTTGTGTGTGTATATATCGGAGTCACCTAGTGCAG", "binding signal": "16400 fluorescence intensity (a.u.)"}
{"sequence": "TGGGCCTTGGTAAGGGACAGTGGCATACTCGTGTACATGGCGGAGTCACCTAGTGCAG", "binding signal": "8300 fluorescence intensity (a.u.)"}
{"sequence": "CTACTGCTTTCTTTCTTTCTCTATTGCAGTCTACCTCCTACGGAGTCACCTAGTGCAG", "binding signal": "11400 fluorescence intensity (a.u.)"}
